No constants are given. Whether binding was seen depends on the method and setting. In cells and extracts the contact can be indirect. Some results given as binding are weak or reduced against the parent protein; the word gives no strength.
What was measured:
[1] = target: GPR55 (wild type, in the cell-based NanoBiT and BRET assays) (UniProt Q9Y2T6); assay: condition: only with the ligands other than LPI (cells without the activating ligand LPI); split reporter; NanoBiT recruitment assay of β-arrestin 1 to GPR55, with the ligands other than LPI
[2] = target: GPR55 (wild type, in the cell-based NanoBiT and BRET assays) (UniProt Q9Y2T6); assay: split reporter; NanoBiT recruitment assay of β-arrestin 1 to GPR55, with LPI

Protein sequences, listed by entry. Tags and fused reporters are not part of them.
UniProt Q9Y2T6: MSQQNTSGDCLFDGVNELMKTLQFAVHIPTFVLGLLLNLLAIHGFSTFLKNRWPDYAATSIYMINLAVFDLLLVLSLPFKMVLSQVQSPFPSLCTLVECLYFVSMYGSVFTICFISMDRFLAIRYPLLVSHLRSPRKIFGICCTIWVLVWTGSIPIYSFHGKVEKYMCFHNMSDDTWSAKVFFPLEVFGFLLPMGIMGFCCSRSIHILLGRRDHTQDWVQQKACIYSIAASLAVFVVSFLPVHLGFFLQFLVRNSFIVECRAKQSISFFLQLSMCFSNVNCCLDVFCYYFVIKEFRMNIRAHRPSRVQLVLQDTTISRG
UniProt P49407: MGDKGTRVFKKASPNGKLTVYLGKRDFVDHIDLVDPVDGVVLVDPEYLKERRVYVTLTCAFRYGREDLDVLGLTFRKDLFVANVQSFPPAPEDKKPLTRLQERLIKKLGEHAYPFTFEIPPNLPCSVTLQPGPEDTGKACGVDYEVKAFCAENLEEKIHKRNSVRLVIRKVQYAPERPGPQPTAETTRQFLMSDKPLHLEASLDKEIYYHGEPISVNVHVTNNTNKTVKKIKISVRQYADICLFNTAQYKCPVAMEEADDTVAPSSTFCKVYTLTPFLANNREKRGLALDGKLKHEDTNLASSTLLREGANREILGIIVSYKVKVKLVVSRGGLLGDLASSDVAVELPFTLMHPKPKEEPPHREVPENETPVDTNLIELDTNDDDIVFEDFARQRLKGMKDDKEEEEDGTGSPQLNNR

- binding [1]: no binding
- binding [2]: binds
Substance: β-arrestin 1 (from UniProt P49407 1-418)
